In patent US20050130997A1, “Pyrimidinone viral polymerase inhibitors” (priority 2002, published 2005):
Where a name gives a salt, the structure may show the parent alone. Read-outs that look alike come from different tables or passages of the source. Some entries share one result that the patent states for a list of compounds. For at least one compound, name, drawing or mass did not settle the structure.

By UniProt entry, the sequences of proteins in these tests, tags left out. Residues count along the entry.
UniProt P26663, 2420-3010: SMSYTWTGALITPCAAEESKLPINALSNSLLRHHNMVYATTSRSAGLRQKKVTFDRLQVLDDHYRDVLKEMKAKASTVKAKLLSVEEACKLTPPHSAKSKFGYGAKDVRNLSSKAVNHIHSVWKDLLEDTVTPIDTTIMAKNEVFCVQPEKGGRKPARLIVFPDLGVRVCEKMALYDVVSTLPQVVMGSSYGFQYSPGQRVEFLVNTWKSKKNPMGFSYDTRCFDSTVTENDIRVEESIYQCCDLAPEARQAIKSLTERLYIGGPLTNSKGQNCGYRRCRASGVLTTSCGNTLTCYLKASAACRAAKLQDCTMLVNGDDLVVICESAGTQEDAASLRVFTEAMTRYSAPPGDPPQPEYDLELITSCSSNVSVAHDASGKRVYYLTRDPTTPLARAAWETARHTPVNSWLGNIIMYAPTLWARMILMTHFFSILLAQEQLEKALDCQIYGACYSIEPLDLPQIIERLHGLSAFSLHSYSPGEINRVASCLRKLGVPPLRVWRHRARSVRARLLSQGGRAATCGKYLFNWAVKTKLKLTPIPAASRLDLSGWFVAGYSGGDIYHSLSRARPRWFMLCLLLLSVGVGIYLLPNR

Target: T1, HCV RdRp (Hepatitis C virus genotype 1b, UniProt P26663)
T1 construct: The final NSSB enzyme concentration was 20 nM; made in house; host or cells: insect cells infected with recombinant baculovirus (as described in the cited WO 96/37619)
Test: Test for Inhibition of Hepatitis C Virus RdRp (poly(A)/oligo(U) polymerisation assay, [3H]-UTP incorporation)
Assay type: biochemical
Details: recombinant HCV RdRp 20 nM, poly(A) template, oligo(U)12 primer, 1 h at 22° C.

| SMILES | IC50 (read-out: IC50) | IC50 |
| --- | --- | --- |
| Cn1c(-c2sccc2NCCCc2ccccc2)nc(C(=O)O)c(O)c1=O [Example 20, 2-(4-Carboxy-5-hydroxy-1-methyl-6-oxo-1,6-dihydropyrimidin-2-yl)-N-(3-phenylprolpyl)thiophen-3-aminium trifluoroacetate] | < 100 µM | – |
| Cn1c(-c2cccc(O)c2)nc(C(=O)O)c(O)c1=O [Example 24, 5-Hydroxy-2-(3-hydroxylhenyl)-1-methyl-6-oxo-1,6-dihydropyrimidine-4-carboxylic acid] | – | < 100 µM |
